Test results as given in PubChem BioAssay AID977622 (Broad Institute, 2014).
Some of the results follow. The main result of the screen is listed elsewhere. These columns were measured beside it and carry no call.

Experiments:
[1] = growth inhibition of wild-type GFP E. coli, dose response, h38 mutant RFP, cherry-pick (AID 977622); details: E. coli mixed culture, 24 h, total growth OD600 at 50 uM
[2] = system: E. coli h38 humanized mutant ribosome RFP fluorescence, mixed culture, 24 h; test: as above; details: h38 mutant RFP at 50 uM

Compound	activity change [1] [%]	activity change [2] [%]
CCN(CC)CCN(C(=O)c1ccc2c(c1)OCCO2)c1nc2c(Cl)cccc2s1	-37.6	-10.8
CCCC(=O)Nc1cccc(C(=O)Nc2ccccc2OCC)c1	-14.8	-18
O=C(Nc1ccccc1N1CCOCC1)C1CCCCN1S(=O)(=O)c1ccccc1 (configuration not stated)	-24.4	
Clc1ccc(-c2nc(NCCCN3CCOCC3)c3ccccc3n2)cc1	-38.1	-5.75
CNC(=O)c1ccsc1NC(=O)c1ccc2c(c1)CCCC2	-20.7	-4.25
O=C(NCc1ccc(S(=O)(=O)Nc2ccccc2Cl)s1)c1ccccc1	-25	-32.8
O=C(NCc1nnnn1-c1ccc(Cl)cc1)c1ccc([N+](=O)[O-])o1	-41.8	-13.4
CN(C(=O)c1ccc(F)cc1)c1ccc(OCC(=O)Nc2ccccc2C(=O)O)cc1	-15.9	-8.64
COc1ccc(CC(=O)Nc2cc(S(=O)(=O)Nc3ccc(OC)cc3)ccc2OC)cc1	-12	-9.85
COc1ccc(Cl)cc1NC(=O)CN(C)CC(=O)Nc1ccccc1-c1ccccc1	-38.7	3.44
CS(=O)(=O)c1cccc(C(=O)Nc2cccc(-c3nc4ccccc4[nH]3)c2)c1	-47.2	27.4
O=C(NC1CCCC1)c1ccc([N+](=O)[O-])s1	-21	
COc1ccc(C(=O)Nc2ccc3nc(C)sc3c2)cc1OC	-31.8	
COC(=O)C1CCN(C(=O)c2ccc(OC)c(S(=O)(=O)N3CCCc4ccccc43)c2)CC1	-15.7	-13.1
CCc1cccc(NC(=O)CN(C)S(=O)(=O)c2cccc3cccnc23)c1	-13.9	-22.2
OCCCc1cn(-c2ccccc2)c2ccccc12	-80.7	-3.09
Clc1ccc(-c2cn(-c3ccccc3)c3[n+]2CCS3)cc1	-10.6	28.5
CCOc1ccc(NC(=O)CN2C(=O)COc3ccc(S(=O)(=O)N4CCCC4)cc32)cc1	-41.6	-13
O=S(=O)(NC1c2cccc3cccc(c23)C1Sc1ncccn1)c1ccccc1 (configuration not stated)	-50.4	-24.1
Cc1nn(Cc2cccc(F)c2)c(C)c1NC(=O)c1c(Cl)cnn1C	3.08	3.5
CCc1nn2cc(C(=O)c3cc(Cl)ccc3O)cnc2c1-c1ccc(F)cc1	-19.2	
FC(F)(F)c1ccc(Cl)c(-n2c(Cc3cccs3)n[nH]c2=S)c1	-47.4	-4.18
Cc1ccsc1C(=O)OCC(=O)N1CCc2ccccc2C1	-19.3	3.61

One compound at a time, as listed above. Values in the order: activity change [1] [%]	activity change [2] [%]
Cc1nn(Cc2cccc(F)c2)c(C)c1NC(=O)c1c(Cl)cnn1C is entered as 3.08	3.5
CCCC(=O)Nc1cccc(C(=O)Nc2ccccc2OCC)c1 is entered as -14.8	-18
